# From PubChem BioAssay AID504467 (National Center for Advancing Translational Sciences (NCATS), 2011)
# The campaign covered roughly 330,000 compounds. About 7,700 (2.3%) were called active. The shares of active, inactive and inconclusive entries below differ from those in the screen. Calls follow the shape of the dose curve; as a rule, active = well fitted inhibition curve with a large enough effect; inconclusive = small, poorly fitted or top-dose-only effect, or effect the other way; inactive = flat fitted curve, though single readings scatter. Potencies beside an inconclusive call are fits to weak or partial responses and may not hold up.
# Experiment: qHTS screen for small molecules that inhibit ELG1-dependent DNA repair in human embryonic kidney (HEK293T) cells expressing luciferase-tagged ELG1; also: nearly all actives have a fitted effect of over 55% in size
# Conditions: HEK293T ELG1-luciferase reporter, luminescence, 16 h, DNA damage induced by 5-fluorouridine; series mostly up to 46.1 µM
# Summary of the method: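 Cells (2,000 per well) received 5-fluorouridine plus test compound or DMSO and were incubated 16 hr at 37 °C, 5% CO2. Luciferase activity was read by luminescence 30 min after ONE-Glo addition; signal suppression marked inhibition of damage-induced ELG1 function.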
# Potency is read from the fitted curve at half-maximal effect.
row,Compound,Potency
1,O=C(Oc1ccc(Cl)c2cccnc12)C12CC3CC(CC(C3)C1)C2,"inconclusive: 9.2 µM [inhibitor, partial curve, poor fit]"
2,CCOc1ccc(-c2cc(C(=O)NCCCN3CCCC3)c3ccccc3n2)cc1,"inconclusive: 20.6 µM [activator, single point]"
3,O=C(Nc1cc(S(=O)(=O)N2CCOCC2)ccc1N1CCOCC1)c1ccccc1[N+](=O)[O-],inactive
4,Cc1ccc(-c2nnn(CC(=O)N(Cc3cccs3)C(C(=O)NC3CCCC3)c3ccncc3)n2)cc1 (stereo not drawn),"inconclusive: 3.66 µM [inhibitor, partial curve, poor fit]"
5,O=C(c1cc(-c2ccc(F)cc2)on1)N1CCCC1,"inconclusive: 4.11 µM [activator, full curve]"
6,Cc1ccccc1NC(=O)C1CCCN(S(=O)(=O)c2ccc(-n3cnnn3)cc2)C1 (stereo not drawn),"inconclusive: 7.3 µM [inhibitor, partial curve, poor fit]"
7,CSc1ccccc1NC(=O)Nc1cccc(Cl)c1Cl,"inconclusive: 20.6 µM [activator, single point]"
8,CCOc1ccc(-c2nnc(-c3ccncc3)o2)cc1,"inconclusive: 5.17 µM [activator, partial curve]"
9,S=C(Nc1ccccc1)N1CCCCC1,inactive
10,Cc1ccc(CNC(=O)C(CC(C)C)OC(=O)c2ccco2)cc1 (stereo not drawn),"inconclusive: 18.3 µM [activator, partial curve, poor fit]"
11,Cc1csc(NC(=O)c2ccc(N3CCCC3=O)cc2)n1,"inconclusive: 0.326 µM [activator, full curve]"
12,O=C(Nc1ccc(Oc2cccnc2)nc1)c1ccc(C(F)(F)F)cc1,"inconclusive: 25.9 µM [inhibitor, single point]"
13,CCCCN=C(N)/C(C(=O)OCC)=C(\O)c1ccc(OC)cc1,"inconclusive: 20.6 µM [inhibitor, single point]"
14,CC(C)(C)c1ccc(OCCCC(=O)Nc2cccc(S(=O)(=O)N3CCOCC3)c2)cc1,"inconclusive: 32.6 µM [inhibitor, single point]"
15,COc1ccc(NC(=O)[C@H](Cc2c[nH]c3ccccc23)NC(=O)[C@@H]2Cc3ccccc3CN2)cc1,"inconclusive: 29.1 µM [inhibitor, single point]"
16,COc1ccccc1Cn1c(=S)[nH]c2cc(C(=O)N3CCCC3)ccc2c1=O,"inconclusive: 6.51 µM [inhibitor, partial curve]"
17,COc1ccc(CN2C(=O)C(C)N(C(=O)c3c(F)cccc3F)c3ccccc32)cc1 (stereo not drawn),"inconclusive: 29.1 µM [inhibitor, single point]"
18,Clc1ccc(-c2nnc(NCc3ccccc3)c3ccccc23)cc1,"inconclusive: 20.6 µM [inhibitor, partial curve]"
19,O=C(C1=C(O)C(=O)N(CCCN2CCOCC2)C1c1ccc(Cl)cc1)c1cc2ccccc2o1 (stereo not drawn),"inconclusive: 18.3 µM [activator, single point]"
20,CC(C)(C)OC(=O)[C@H](Cc1ccccc1)NC(=O)c1[nH]cnc1C(=O)Nc1cccc(Cl)c1,"inconclusive: 25.9 µM [inhibitor, partial curve, poor fit]"
21,Cc1cccc(NC(=O)CSc2nnc(CSc3nc(C)cc(C)n3)n2Cc2ccco2)c1,"inconclusive: 25.9 µM [inhibitor, partial curve]"
22,Cc1ccc(CN2CCCC(CO)(Cc3ccccc3C)C2)s1 (stereo not drawn),inactive
23,O=C(Nc1ccc(Cc2ccncc2)cc1)C1CCC(N2C(=O)C3CCCCC3C2=O)CC1 (stereo not drawn),"inconclusive: 9.2 µM [inhibitor, partial curve]"

# Ordered by length of the SMILES (high to low): some entries from above
row,Compound,Potency
15,COc1ccc(NC(=O)[C@H](Cc2c[nH]c3ccccc23)NC(=O)[C@@H]2Cc3ccccc3CN2)cc1,"inconclusive: 29.1 µM [inhibitor, single point]"
4,Cc1ccc(-c2nnn(CC(=O)N(Cc3cccs3)C(C(=O)NC3CCCC3)c3ccncc3)n2)cc1 (stereo not drawn),"inconclusive: 3.66 µM [inhibitor, partial curve, poor fit]"
1,O=C(Oc1ccc(Cl)c2cccnc12)C12CC3CC(CC(C3)C1)C2,"inconclusive: 9.2 µM [inhibitor, partial curve, poor fit]"
13,CCCCN=C(N)/C(C(=O)OCC)=C(\O)c1ccc(OC)cc1,"inconclusive: 20.6 µM [inhibitor, single point]"
11,Cc1csc(NC(=O)c2ccc(N3CCCC3=O)cc2)n1,"inconclusive: 0.326 µM [activator, full curve]"

# Further structures follow:

row,Compound,Potency
1,COc1ccc(C(CNCC(O)COc2c(C)ccc(C)c2C)N(C)C)cc1 (stereo not drawn),inactive
2,COc1ccc(-n2c(/C=C(\C)O)nc(=O)c3c(C)cc(C)nc32)cc1,active: 8.2 µM
3,O=C(NCCc1csc(-c2cccnc2)n1)c1ccccc1,inactive
4,O=C1N[C@@H](c2ccccc2)COC(=O)[C@@H](Cc2ccc(F)cc2)CC/C=C/C[C@H]1CC(=O)N(CCO)Cc1ccccc1,active: 14.6 µM
5,O=C(N=C1SC2CS(=O)(=O)CC2N1c1ccc(Br)cc1Cl)C1CC1 (stereo not drawn),"inconclusive: 18.3 µM [activator, single point]"
6,CC(=O)c1ccc(OCc2cc(C(=O)N3CC[C@@H]4CCCC[C@H]4C3)no2)cc1,"inconclusive: 10.3 µM [activator, partial curve]"
7,COc1cccc(C(=O)NC(=O)Nc2cc(C)on2)c1,"inconclusive: 10.3 µM [activator, partial curve]"
8,COc1cc(OC)c(OC)cc1/C=C/C(=O)c1ccc(NS(=O)(=O)c2ccc(C)cc2)cc1,active: 14.6 µM
9,CCn1cc(C(=O)NC(=S)Nc2ccccc2[N+](=O)[O-])cn1,inactive
10,CN1C(=O)C2(Oc3ccccc3C3CC(c4ccccc4)=NN32)c2ccccc21 (stereo not drawn),"inconclusive: 23.1 µM [activator, single point]"
11,COc1ccccc1[C@]1(C)ON(c2ccccc2C(F)(F)F)C1=O,active: 20.6 µM
12,CC(=O)c1cccc(NC(=O)Nc2ccc(C(=O)N3CCOCC3)cc2)c1,active: 10.3 µM
13,O=C(NC(c1ccccc1)C(Cl)Cl)c1ccccc1 (stereo not drawn),inactive
14,CC(C)(C)C(=O)Nc1ccc(-c2cn3ccsc3n2)cc1,"inconclusive: 0.82 µM [activator, full curve]"
15,CCN1CSC(=S)N(Cc2ccc(OC)cc2)C1,inactive
16,Cc1ccc(NC(=O)COC(=O)c2ccco2)cc1C,inactive
17,Cc1c(Nc2cc(N3CCOCC3)c3nonc3c2[N+](=O)[O-])c(=O)n(-c2ccccc2)n1C,inactive
18,O=C(Cc1ccc(Cl)cc1)Nc1ccc(Br)cn1,"inconclusive: 29.1 µM [activator, single point]"
19,CN(Cc1ccccc1Br)C(=O)CSc1nnnn1C1CC1,"inconclusive: 32.6 µM [activator, partial curve, poor fit]"
20,Cc1ccc(S(=O)(=O)Nc2ccc(O)c3ccccc23)c(C)c1,active: 16.4 µM
21,COC(=O)[C@@]12CCCN1[C@H](c1ccc(-c3ccc(Cl)c(Cl)c3)cc1)[C@H]1C(=O)N(C)C(=O)[C@H]12,"inconclusive: 3.16 µM [inhibitor, partial curve, poor fit]"
22,O=C(/C=C(\c1ccc(Cl)cc1)n1cncn1)c1ccc(Cl)cc1,inactive
23,O=C(Cn1cnc2ccccc2c1=O)N1CCN(Cc2ccc3c(c2)OCO3)CC1,"inconclusive: 18.4 µM [inhibitor, partial curve]"

row,Compound,Potency
1,COc1ccc2c(c1OC)C(=O)N1c3ccccc3SC21 (stereo not drawn),"inconclusive: 8.2 µM [activator, partial curve]"
2,O=C1[C@H](c2ccccc2)[C@@H](c2ccccc2)N1c1ccncc1,inactive
3,CCCCC(=O)Nc1ccc(C(=O)OC2CCCCC2)cc1,inactive
4,CCOC(=O)c1ccccc1NC(=O)CSc1nnc(Cc2cccn2C)n1-c1ccc(F)cc1,inactive
5,COC(=O)c1ccc(Cl)c(NC(=O)NC23CC4CC(CC(C4)C2)C3)c1,active: 20.6 µM
6,CCn1c(C)nc2cc(OC)ccc21,"inconclusive: 1.16 µM [inhibitor, single point]"
7,CCOc1ccc(NC(=O)CCC(=O)N/N=C/c2ccc3c(c2)OCO3)cc1,"inconclusive: 23.1 µM [activator, single point]"
8,CCN(CC)S(=O)(=O)c1cccc(NC(=O)COc2ccc(Cl)cc2Br)c1,"inconclusive: 16.4 µM [inhibitor, single point]"
9,COC(=O)[C@@H](CC(C)C)NS(=O)(=O)N(Cc1ccccc1)[C@@H](CC(C)C)C(=O)OC,"inconclusive: 23.1 µM [inhibitor, single point]"
10,C/C(=N/NC(=O)c1cccs1)c1cccc(N)c1,"inconclusive: 20.6 µM [activator, partial curve]"
11,Cc1ccc(SCC(=O)c2c(C)[nH]c3ccccc23)cc1,"inconclusive: 23.1 µM [activator, single point]"
12,COc1ccccc1C(=O)Nc1ccc2c(c1)OCO2,"inconclusive: 9.2 µM [activator, partial curve]"
13,O=[N+]([O-])c1ccccc1/C=C/C=N/N1CCCCC1,"inconclusive: 18.3 µM [activator, partial curve]"
14,Cc1ccc(NC(=O)c2ccc(NCCCN3CCC(C)CC3)c([N+](=O)[O-])c2)cc1F,"inconclusive: 29.1 µM [activator, single point]"
15,Cc1ccc(S(=O)(=O)NCCc2ccccc2)cc1,"inconclusive: 32.6 µM [activator, partial curve, poor fit]"
16,CC(C)NC(=O)CN1CCN(Cc2nc(C(c3ccccc3)c3ccccc3)no2)CC1,inactive
17,COc1ccccc1C(=O)N1CCCN(C(=O)c2ccccc2OC)CC1,inactive
18,CCC1(C)Cc2c(sc3c2c(=O)n(-c2ccccc2)c(=O)n3C)CO1 (stereo not drawn),"inconclusive: 23.1 µM [inhibitor, partial curve, poor fit]"
19,COc1ccccc1C(=O)N/C(=C\c1ccc2c(c1)OCO2)C(=O)NCCc1nc2ccccc2[nH]1,"inconclusive: 25.9 µM [inhibitor, partial curve]"
20,Cc1ccc(-c2nc3ccc(C(=O)O)cc3nc2-c2ccc(C)cc2)cc1,"inconclusive: 1.12 µM [activator, partial curve, poor fit]"
21,S=c1[nH]nc(COc2ccccc2)n1/N=C/C=C/c1ccco1,inactive
22,COc1ccc2c(c1)O[C@@H](c1cccc(C(F)(F)F)c1)[C@H](OC(=O)Nc1ccc(OC(F)F)cc1)C2=O,"inconclusive: 13 µM [inhibitor, partial curve, poor fit]"
